In paper PMC5101909:

Tested on: thrombin
Experiment: gel, thrombin-induced release of labelled coDNA
Conditions: 5'-acrydite of aptaDNA copolymerized with MPC; Nanogels generated in PBS

Sequence: TTTTTTTGCTCCGGTTGGTGTGGTTGG / TTTTTTTTTTTTCCAACCGGAGC [P(MPC/aptaDNA)/fluorescent coDNA duplex]
- binding result: binds

The exact form of at least one protein or probe is not confirmed.
